The other results are listed elsewhere or left out.

Amino acid sequences for entries named in this document (tags omitted).
UniProt Q0JBA9, entry or part of it: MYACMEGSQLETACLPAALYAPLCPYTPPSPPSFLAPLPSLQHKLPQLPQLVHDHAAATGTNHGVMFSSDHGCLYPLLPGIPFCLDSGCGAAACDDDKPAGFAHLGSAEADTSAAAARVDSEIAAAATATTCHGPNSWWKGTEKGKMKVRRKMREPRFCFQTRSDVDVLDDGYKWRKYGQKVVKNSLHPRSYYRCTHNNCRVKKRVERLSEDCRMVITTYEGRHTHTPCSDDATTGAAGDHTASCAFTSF

This assay addresses OsWRKY34 (Oryza sativa, UniProt Q0JBA9 1-250). Description: protein-binding microarray (RPBM); PBS, 2% BSA, 51.3 ng/ul salmon testes DNA, 50 uM zinc acetate, 200 nM TF, 25 C, 1 h; high values mean tight binding. The settings on record: protein: recombinant; tags: N-terminal polyhistidine and DsRed monomer fusion (pET32a); label: CyDye5-dUTP incorporated in the synthesized complementary strand; 3' TTTTT single-stranded linker to array surface; dsDNA, one strand shown. The essentials: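 Using Ni–NTA, transcription factors fused N-terminally to polyhistidine and DsRed were purified after expression in E. coli BL21-CodonPlus. These were incubated at 200 nM with a blocked, double-stranded custom Agilent array for 1 h at 25 °C in a buffer containing 50 µM zinc acetate, and the array was washed. The binding signal is per-feature fluorescence intensity (arbitrary units) on an Axon 4000B scanner.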
As for “ACACCTCGACAAGTAGACCACCGCCCTGATCACTCGCCGCCGGAGTCACCTAGTGCAG”, the binding signal is 9320 fluorescence intensity (a.u.). In the case of “AATTGTTTACTGATCTTTGCGTTAATGATGATTGTGCCCTCGGAGTCACCTAGTGCAG” it was 8660 fluorescence intensity (a.u.); in that of “CCGTACTACCCCATCATGGGACATCTCTCTTGTGGCCATCCGGAGTCACCTAGTGCAG”, 10900 fluorescence intensity (a.u.); in that of “TCGTATAAACACACACTCACACCCTTACGAACGTACGCTTCGGAGTCACCTAGTGCAG”, 8370 fluorescence intensity (a.u.).

“GCACATTCTCCTCTTCTTCTTCCCGTGTTCTTGTTCTTCTCGGAGTCACCTAGTGCAG”: the binding signal is 10100 fluorescence intensity (a.u.).

As to “AACCCTCGCGTGCGTCGCGTCGTCTCCTCTCTCTCTCTCTCGGAGTCACCTAGTGCAG”, the binding signal was 8420 fluorescence intensity (a.u.). “TATTGGGTTCCTAAGCCCTTTTTGTTTCCAGAGGCTTCTGCGGAGTCACCTAGTGCAG”: the binding signal was 9470 fluorescence intensity (a.u.).

For “AGTTTTGTACTAGGTTAAGCATTTCTTTCCTTTGACTGTCCGGAGTCACCTAGTGCAG”, the binding signal is 8090 fluorescence intensity (a.u.). In the case of “AGTCATCCACTATCTCCTTCCATTTCCTTCAGAGGAGCACCGGAGTCACCTAGTGCAG” it was 10300 fluorescence intensity (a.u.); in that of “GACCACCGCTCCTCGGCTGGAGGGAGCCCTCGTCGCCGGCCGGAGTCACCTAGTGCAG”, 8750 fluorescence intensity (a.u.); in that of “AGTCTTGAAGACTGAGGCAAAGTCTGTTATCTTAATCGATCGGAGTCACCTAGTGCAG”, 9140 fluorescence intensity (a.u.).

Take “ACTCCCACCACCGTCACGTCGCCCCTCTGCTCTCTGCACTCGGAGTCACCTAGTGCAG”: the binding signal is 8190 fluorescence intensity (a.u.).

For the sequence “ATCTGAAACCTTCACTTGTGTTCATGTAAACAGCAAGCCTCGGAGTCACCTAGTGCAG”, the binding signal was 8540 fluorescence intensity (a.u.). Turning to “GTCTTCAATGAGCTAAGGTCCTTTTTATTTAGGCTTTTTACGGAGTCACCTAGTGCAG”, the binding signal is 11300 fluorescence intensity (a.u.).

With “GTTCTGACTGTTGTAGGGTATACTGTTTGGTTGTTCTTTACGGAGTCACCTAGTGCAG”, the binding signal is 11500 fluorescence intensity (a.u.). “ATTTGTGGATGTATAAGTGTGGTGTTGGGTATGTACGCGCCGGAGTCACCTAGTGCAG”: the binding signal was 8640 fluorescence intensity (a.u.). With “CTGCGCCTGCGTCTGCGCCACCGTCACCTTCGCGGCCGCGCGGAGTCACCTAGTGCAG”, the binding signal is 10700 fluorescence intensity (a.u.). Consider “CCCTGGTTTCCGTGTCCAATGTTTGACCGTCCGTCTTATTCGGAGTCACCTAGTGCAG”, for which the binding signal was 10200 fluorescence intensity (a.u.). Regarding “TTTATCCCTTTGAATCCGGCGCGAATTTGGATTCATTTTCCGGAGTCACCTAGTGCAG”, the binding signal is 10600 fluorescence intensity (a.u.).

Regarding “GGCGTGGGGAGGCGGAGGGAGGGAGGGGAGCGGCTGCGCACGGAGTCACCTAGTGCAG”, the binding signal is 17700 fluorescence intensity (a.u.). “CTAGCATGGAATTGTTTAGCCTCACTATCTTCATTTGTCCCGGAGTCACCTAGTGCAG”: the binding signal was 10300 fluorescence intensity (a.u.). For the sequence “ATCTATCTATGTACCTACTGCAAAAGGCTGCTGATTCGTGCGGAGTCACCTAGTGCAG”, the binding signal is 10800 fluorescence intensity (a.u.).

With “CAAGTGGTTTGACCGTGGTTTGACTGACGTGGGATGCTTTCGGAGTCACCTAGTGCAG”, the binding signal is 10700 fluorescence intensity (a.u.). “ATCCGTTTCTTGCTTTGACTCACTATCTGATCCTAATTACCGGAGTCACCTAGTGCAG”: the binding signal was 8800 fluorescence intensity (a.u.). In the case of “TGACTGCCATACTACTATTCCAAAGTTCATAGTATTTCCACGGAGTCACCTAGTGCAG” it was 8040 fluorescence intensity (a.u.); in that of “CCTCGCCTCGCCTCCCCACTTCGCTTCACTGCTTCCCTACCGGAGTCACCTAGTGCAG”, 11100 fluorescence intensity (a.u.); in that of “AGTTTTTGTTTGTCAATTTTGATCTTTCGTCTTATTTAAACGGAGTCACCTAGTGCAG”, 11200 fluorescence intensity (a.u.). Consider “GACACCGTTGACTTTTTAAGTACGTGTTTGACCATTCGTCCGGAGTCACCTAGTGCAG”, for which the binding signal is 43700 fluorescence intensity (a.u.). Take “CCTATCAGTACTGTCACATCTGGTGTGTGTGTGTCCAACTCGGAGTCACCTAGTGCAG”: the binding signal is 9170 fluorescence intensity (a.u.).

For “CTGAGTTCTGTATTGGATCAGCTTCATGTTATCGGCATCACGGAGTCACCTAGTGCAG”, the binding signal is 8450 fluorescence intensity (a.u.). On to “TCCAGCTTCCTTGTCCGCTACAGCTGGCGTGGTTTTTATGCGGAGTCACCTAGTGCAG”, for which the binding signal is 9990 fluorescence intensity (a.u.). As for “CTAAATAGGCCTTAGTCACCTAAAGTTGACTAAACCACATCGGAGTCACCTAGTGCAG”, the binding signal was 10500 fluorescence intensity (a.u.). The same measure for “TTGTGTGTATATGTAACTTTAAGATTTGTGATGTTACTTTCGGAGTCACCTAGTGCAG”: 8250 fluorescence intensity (a.u.); for “GTTCCCGCCGACGAGCTCTTCCCCTTCCCGTCTTTCTTCCCGGAGTCACCTAGTGCAG”: 8700 fluorescence intensity (a.u.); for “TCTCAGCGGCCCGAACCTGTCTACGTCGCCCGTGTCTTGTCGGAGTCACCTAGTGCAG”: 11200 fluorescence intensity (a.u.).

As to “CTATTGCTTAGGATCTTCTTCACTCTTAGTACCAGCGAATCGGAGTCACCTAGTGCAG”, the binding signal is 8120 fluorescence intensity (a.u.). “GGTGTTTTTTAGGGTGCGATTTTGTTTTGCGTTTTGATCTCGGAGTCACCTAGTGCAG”: the binding signal is 10900 fluorescence intensity (a.u.).

On to “AGCTAAACATTTCACTTTATCCTTGGCGGGCACATGATAACGGAGTCACCTAGTGCAG”, for which the binding signal is 11200 fluorescence intensity (a.u.). With “AACGGGGTCCAGTAATCTGTAATCCAGTCATGCCATTCATCGGAGTCACCTAGTGCAG”, the binding signal was 8390 fluorescence intensity (a.u.). The same measure for “TACGGCTGATCACATAAAACATTAGTTCATTACCGGTAACCGGAGTCACCTAGTGCAG”: 8680 fluorescence intensity (a.u.); for “TTGCGGTTTAGGGTTATGGATTAGATTCGGAACAATTTTACGGAGTCACCTAGTGCAG”: 8140 fluorescence intensity (a.u.). For the sequence “GCCCAAATAGACGGCCCATATTGAATCACGCAAAATTACACGGAGTCACCTAGTGCAG”, the binding signal was 10400 fluorescence intensity (a.u.). On to “AGCAGTTAGGGTTCTTGGCGTTGGGGCTTTCAATAGCGCGCGGAGTCACCTAGTGCAG”, for which the binding signal is 8560 fluorescence intensity (a.u.). In the case of “CCTCGCTCCTCCTCGTCGCAGATCGATCTCAAACCTTCAGCGGAGTCACCTAGTGCAG”, the binding signal is 8730 fluorescence intensity (a.u.). In the case of “GACCGATTTTGTTCTGTTTTCCATTTGTTTTTTGGCCGGGCGGAGTCACCTAGTGCAG” it was 8560 fluorescence intensity (a.u.). The same measure for “CTGGGGTTCAAGTTGCAGAAAAACATACACATTTTGACACCGGAGTCACCTAGTGCAG”: 9170 fluorescence intensity (a.u.); for “CCGTATTCGATTCGTTTTCATTCCTACATATGTGTGTACTCGGAGTCACCTAGTGCAG”: 10300 fluorescence intensity (a.u.); for “GGCTGCAGCAACGCCGACCTTTCTTCTCACGGCCCAAATCCGGAGTCACCTAGTGCAG”: 8480 fluorescence intensity (a.u.). Take “AAAAAAAACCACCACGCCTCGTTCAGTCACTCGCACGCTCCGGAGTCACCTAGTGCAG”: the binding signal is 9810 fluorescence intensity (a.u.).

In the case of “ACGCCGGCGACCACCTCCCAACATCCTCTCTCATGTCGCACGGAGTCACCTAGTGCAG”, the binding signal is 8680 fluorescence intensity (a.u.). In the case of “CAATGACCCTACACCGGCAACAAACAAGTCGGTCGACACCCGGAGTCACCTAGTGCAG”, the binding signal is 8290 fluorescence intensity (a.u.). As for “ACCCCGACCATCTCCCACCATCGGAGGAGACGCTCAAACTCGGAGTCACCTAGTGCAG”, the binding signal was 8340 fluorescence intensity (a.u.). As to “CTTTTGTTTTTCCTTTTTTCTCACTTGTCCCTACTTGACCCGGAGTCACCTAGTGCAG”, the binding signal was 10700 fluorescence intensity (a.u.). As to “AGCAATCAAGTTCAAGCCATCTTTATTTGCAGCTCACATTCGGAGTCACCTAGTGCAG”, the binding signal was 8380 fluorescence intensity (a.u.).

Values taken from PMC7819943, “Rice protein-binding microarrays: a tool to detect cis-acting elements near promoter regions in rice”.
